Values quoted from earlier work as cited in patent US20060147947A1, “AMPK pathway components” (priority 2002, published 2006).
Like-named read-outs stand apart in the source and are kept apart here. For at least one compound, name, drawing or mass did not settle the structure.

Test system: AMPK
Details: cited from earlier work

CN(CCOc1ccc(CC2SC(=O)NC2=O)cc1)c1ccccn1 (centres unmarked) [rosiglitazone]
effect on AMPK activity: stimulate AMPK activity | effect on AMPK activity (listed as Rosiglitazone): increase AMPK activity
